PubChem BioAssay AID2685 (National Center for Advancing Translational Sciences (NCATS), 2010)
The other results are listed elsewhere or left out. The main result of the screen is listed elsewhere. These columns were measured beside it and carry no call. Most of these compounds were active or inconclusive in the main read-out, so they are no random draw. The note in brackets gives the kind of curve behind each potency; many fits are weak.

Assay: qHTS Assay for Lipid Storage Modulators in Drosophila S3 Cells;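 on cell number change: cells counted by Cell Tracker Red CMTPX staining in the red channel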
Conditions: BODIPY lipid droplet fluorescence, 18-24 h; for cell number change: measured here: cell count max response, cells fed with added oleic acid
Outline: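 Drosophila S3 cells loaded with oleic acid (400 uM, as added) and compounds at several concentrations; lipid droplets imaged by 488-nm laser-scanning cytometry, 500–530 nm intensity and object ratio to cell channel. Percent activity normalized to 20 uM Triacsin C.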

[1] = measured here: cell number channel AC50, cells fed with added oleic acid
[2] = measured here: lipid fluorescence (Fed channel) AC50, cells fed with added oleic acid

With `C=CCSC1=NC(N)=C(C#N)C2(CCCCC2)C1C(N)=O` (stereo not drawn) the cell number change was -9.71% and the AC50 [1] was 0.13 µM [falling, full curve, poor fit].

With `COc1cc(-c2nc(C(=O)NC3CCN(Cc4ccccc4)CC3)cc3c2[nH]c2ccccc23)cc(OC)c1OC` the cell number change was 26.9% and the AC50 [2] was 3.26 µM [falling, partial curve, poor fit].

Compound `Cc1cccc(-c2c(NC(=O)c3ccco3)oc3c(C)cccc3c2=O)c1` has a cell number change of 0.708%.

In the case of `Cc1ccc2[nH]c(=O)c(CN(CCc3ccccc3)C(=O)N3CCOCC3)cc2c1`, the cell number change is reported as -18.3% and the AC50 [2] is reported as 0.92 µM [rising, full curve, poor fit].

`COc1ccc(/C=N/Nc2cc(C)nc(N3CCOCC3)n2)cc1` showed a cell number change of 18.7%.

With `CC(C)(C)n1nnnc1C(c1cccc(C#N)c1)N1CCC(Cc2ccccc2)CC1` (stereo not drawn) the cell number change was 59.8% and the AC50 [1] was 5.8 µM [rising, full curve].

With `CCC(/C=C1\Sc2ccc(OC)cc2N1CCO)=C\c1sc2ccc(OC)cc2[n+]1CCO` the cell number change was 4.01%, the AC50 [1] was 0.58 µM [rising, partial curve, poor fit] and the AC50 [2] was 14.6 µM [falling, partial curve].

In the case of `COc1ccc(Cc2nnc(NC(=O)C3CC(=O)N(c4ccc(OC)cc4)C3)s2)cc1` (stereo not drawn), the cell number change is reported as -2.86% and the AC50 [2] is reported as 6.51 µM [falling, single point].

With `CCc1c(O)nc2ccccn2c1=O` the cell number change was 80.3%, the AC50 [1] was 29.1 µM [rising, single point] and the AC50 [2] was 1.3 µM [falling, full curve, poor fit].

For `c1ccc(-n2c(SCc3nc(-c4cccs4)no3)nnc2-c2ccco2)cc1`, the cell number change was -11.4% and the AC50 [2] was 0.0058 µM [rising, full curve, poor fit].

For `COc1cccc(-n2c(CN3CCN(c4ccc(C)cc4)C(C)C3)nc3ccc([N+](=O)[O-])cc3c2=O)c1` (stereo not drawn), the cell number change was 9.29%.

In the case of `COCCCNC(=O)C1CCC(CNS(=O)(=O)c2ccc(C)cc2)CC1` (stereo not drawn), the cell number change is reported as 1.04% and the AC50 [2] is reported as 0.461 µM [rising, single point].

In the case of `CC(=O)Nc1ccc(S(=O)(=O)N2CCN(C(=O)c3ncoc3-c3cccc(C)c3)CC2)cc1`, the cell number change is reported as 20%.

In the case of `O=C(NCc1ccco1)c1ccc(COc2ccc(Cl)cc2)cc1`, the cell number change is reported as -3.06% and the AC50 [2] is reported as 29.1 µM [rising, single point].

With `O=C(N/N=C/c1ccc(O)c([N+](=O)[O-])c1)C(O)(c1ccccc1)c1ccccc1` the cell number change was -29.8% and the AC50 [2] was 0.164 µM [falling, full curve, poor fit].

In the case of `Cc1c(Cl)cccc1NC(=O)CCCn1cnc([N+](=O)[O-])n1`, the cell number change is reported as 1.63%, the AC50 [1] is reported as 0.116 µM [rising, full curve, poor fit] and the AC50 [2] is reported as 0.092 µM [rising, full curve, poor fit].

For `CN(C)C(CNC(=O)NC1CCCCC1)c1cccnc1` (stereo not drawn), the cell number change was 28.5% and the AC50 [2] was 16.4 µM [rising, partial curve, poor fit].

In the case of `CCN1C(c2ccc(F)cc2)=CS/C1=C(\C#N)c1nnc2n1-c1ccccc1SC2`, the AC50 [2] is reported as 0.00517 µM [rising, full curve, poor fit].

With `Cc1ccc(S(=O)(=O)N2CCN(C(=O)COC(=O)c3ccccn3)CC2)c(C)c1` the AC50 [2] was 29.1 µM [rising, single point].

With `CCOc1ccc(NS(=O)(=O)c2cc(NC(=O)CCC(=O)c3cccs3)ccc2Cl)cc1` the cell number change was -18.8% and the AC50 [1] was 6.51 µM [falling, single point].

With `O=C(NCC(c1ccco1)N1CCN(c2ccccc2)CC1)c1ccc2c(c1)OCO2` (stereo not drawn) the cell number change was -41.2%, the AC50 [1] was 4.61 µM [falling, full curve] and the AC50 [2] was 29.1 µM [falling, single point].

With `COC(=O)C1C(=O)c2c([nH]c(C(=O)OC3CCCCC3)c2C)CC1C` (stereo not drawn) the cell number change was -24.5% and the AC50 [2] was 10.3 µM [falling, partial curve].

With `COc1cc(NC(=O)Cc2ccc(Cl)cc2)ccc1NC(=O)c1ccco1` the cell number change was -15.8% and the AC50 [2] was 5.8 µM [falling, partial curve].

With `CCCN(CCC)C(=O)CSc1ncccc1C(=O)O` the cell number change was -9.18% and the AC50 [2] was 0.58 µM [falling, single point].

In the case of `Cc1cc(C(F)(F)F)n2nc(C)c(-c3ccc(Cl)cc3)c2n1`, the cell number change is reported as 20.7% and the AC50 [2] is reported as 1.64 µM [rising, full curve].

In the case of `CCCNC(=O)OCC12CC3CC(CC(C3)C1)C2`, the cell number change is reported as -33% and the AC50 [1] is reported as 20.6 µM [falling, single point].

For `CC(C)CC(=O)Nc1ccc2oc(-c3ccncc3)nc2c1`, the cell number change was 5.52% and the AC50 [2] was 0.58 µM [rising, full curve, poor fit].

With `NS(=O)(=O)c1ccc(CNS(=O)(=O)c2ccc(Cl)nc2)cc1` the cell number change was -19.5%, the AC50 [1] was 0.731 µM [rising, full curve, poor fit] and the AC50 [2] was 0.58 µM [rising, single point].

With `O=C(NCCOc1ccc(F)cc1)C1CCC(=O)N(CC2CCCCC2)C1` (stereo not drawn) the cell number change was 24% and the AC50 [2] was 0.13 µM [falling, full curve, poor fit].

With `COc1cc(/C=C/C(=O)c2ccc(O)cc2)ccc1OCC#N` the cell number change was -8.16% and the AC50 [2] was 0.00517 µM [falling, full curve, poor fit].

With `CC(Oc1ccccc1)C(=O)OCC(=O)NC(=O)NCc1ccco1` (stereo not drawn) the cell number change was -59.3% and the AC50 [1] was 29.1 µM [falling, single point].

For `O=C(N/N=C/c1cccnc1)c1ccc(NC(=O)c2ccccc2Cl)cc1`, the cell number change was 2.99% and the AC50 [2] was 25.9 µM [falling, single point].

In the case of `COc1ccc(/C=C2\SC(=O)N(CCNC(=O)CN3C(=O)NC4(CCCC4)C3=O)C2=O)cc1`, the cell number change is reported as -25%.

In the case of `c1cncc(CNc2nc(-c3cccnc3)nc3ccccc23)c1`, the cell number change is reported as -19.4%.

With `N#Cc1c(NC(=O)c2ccc(Br)o2)n(-c2ccccc2)c2nc3ccccc3nc12` the cell number change was 23%, the AC50 [1] was 0.146 µM [rising, full curve, poor fit] and the AC50 [2] was 0.116 µM [rising, partial curve, poor fit].

With `Cn1c(=O)c2c(nc(SCC(=O)O)n2Cc2cc3c(cc2Cl)OCO3)n(C)c1=O` the cell number change was 39.4%, the AC50 [1] was 10.3 µM [rising, partial curve] and the AC50 [2] was 18.4 µM [rising, partial curve, poor fit].

With `CCOC(=O)N1CCN(S(=O)(=O)N(C)C)CC1` the cell number change was 30.7%, the AC50 [1] was 13 µM [rising, partial curve, poor fit] and the AC50 [2] was 6.51 µM [rising, single point].

For `O=C1C2C3C=CC(CNS(=O)(=O)c4ccccc4)(O3)C2C(=O)N1c1ccc(Cl)cc1` (stereo not drawn), the cell number change was -24.7% and the AC50 [2] was 6.51 µM [rising, single point].

With `COc1cc(NC(=O)CSc2ncnc3c2cnn3Cc2ccccc2)cc(OC)c1` the AC50 [1] was 1.46 µM [rising, partial curve] and the AC50 [2] was 0.58 µM [rising, partial curve, poor fit].

In the case of `CC1=C(C(=O)OCC2CCCCC2)C(c2ccc(F)cc2)NC(=O)N1` (stereo not drawn), the AC50 [2] is reported as 1.3 µM [falling, partial curve].

For `CC(C)/C=C/CN1CCCC(N2CCN(c3cccc(Cl)c3)CC2)C1` (stereo not drawn), the cell number change was -20.1% and the AC50 [2] was 16.4 µM [falling, single point].

With `Cc1ccc(NNC(=O)c2ccno2)cc1Cl` the cell number change was 22.6% and the AC50 [2] was 16.4 µM [rising, single point].

In the case of `CC1=C(C(=O)OCC(C)C)C(c2ccsc2)C2=C(CCCC2=O)N1` (stereo not drawn), the cell number change is reported as 7.46% and the AC50 [2] is reported as 20.6 µM [rising, partial curve].

For `Cc1ccc2[nH]c(O)c(N=NC(=O)C3CC3c3ccccc3)c2c1Br` (stereo not drawn), the cell number change was -56.5%, the AC50 [1] was 23.1 µM [falling, single point] and the AC50 [2] was 20.6 µM [falling, single point].

For `CC1CCN(S(=O)(=O)c2ccc(NC(=O)N3c4ccccc4Sc4ccccc43)cc2)CC1`, the cell number change was 33.6% and the AC50 [2] was 3.26 µM [rising, single point].

Compound `COC(=O)CC1NCCc2cc(OC)c(OC)cc21` (stereo not drawn) has a cell number change of -8.91%.

With `O=S(=O)(Nc1ccc2c(c1)OCCO2)c1cccc2cccnc12` the cell number change was 70.4% and the AC50 [1] was 23.1 µM [rising, partial curve].

For `O=C(C[n+]1ccccc1)c1ccc(Cl)cc1`, the cell number change was -7.91% and the AC50 [2] was 14.6 µM [rising, partial curve].

With `COc1ccccc1-n1c(C)c(C(=O)O)c2cc(OC)c3ccccc3c21` the cell number change was 9.01% and the AC50 [2] was 0.58 µM [rising, single point].

With `COCCN(C(=O)COC(=O)C1CCC(C(C)(C)C)CC1)c1c(N)n(Cc2ccccc2)c(=O)[nH]c1=O` (stereo not drawn) the cell number change was -36% and the AC50 [1] was 5.8 µM [falling, full curve, poor fit].

With `CCCNC(=O)CC(NS(=O)(=O)c1ccc(NC(C)=O)cc1)C(C)C` (stereo not drawn) the cell number change was 3.62%, the AC50 [1] was 6.51 µM [falling, single point] and the AC50 [2] was 6.51 µM [falling, single point].

For `COC(OC)c1ccnc(-c2ccc(OC(=O)c3ccc(F)cc3)cc2)n1`, the cell number change was -17% and the AC50 [2] was 29.1 µM [falling, single point].

For `COc1ccccc1NS(=O)(=O)c1cc(NC(=O)Nc2cccc(C)c2)ccc1N1CCCCC1`, the cell number change was -12.5% and the AC50 [2] was 29.1 µM [falling, single point].

For `CCOC(=O)c1ccc(N2CSC3=C(C#N)C(c4ccc(OC)cc4OC)CC(=O)N3C2)cc1` (stereo not drawn), the cell number change was -28% and the AC50 [2] was 16.4 µM [falling, single point].

With `COc1ccc(/C=N\NC(=O)CNC(=O)C(c2ccccc2)c2ccccc2)cc1[N+](=O)[O-]` the cell number change was -36.6%, the AC50 [1] was 18.4 µM [falling, partial curve, poor fit] and the AC50 [2] was 29.1 µM [rising, single point].

For `CCOC(=O)c1c(C)[nH]c(C)c1C(=O)CSc1nnnn1-c1ccccc1`, the AC50 [1] was 0.58 µM [rising, full curve] and the AC50 [2] was 1.64 µM [rising, partial curve].
